Test results from the supplement of paper PMC10849652.
The list shows a part of the results.

By UniProt entry, the sequences of proteins in these tests, tags left out. Where a name states a change or a piece, a line headed by the entry shows the natural chain unless it says otherwise.
UniProt P52788: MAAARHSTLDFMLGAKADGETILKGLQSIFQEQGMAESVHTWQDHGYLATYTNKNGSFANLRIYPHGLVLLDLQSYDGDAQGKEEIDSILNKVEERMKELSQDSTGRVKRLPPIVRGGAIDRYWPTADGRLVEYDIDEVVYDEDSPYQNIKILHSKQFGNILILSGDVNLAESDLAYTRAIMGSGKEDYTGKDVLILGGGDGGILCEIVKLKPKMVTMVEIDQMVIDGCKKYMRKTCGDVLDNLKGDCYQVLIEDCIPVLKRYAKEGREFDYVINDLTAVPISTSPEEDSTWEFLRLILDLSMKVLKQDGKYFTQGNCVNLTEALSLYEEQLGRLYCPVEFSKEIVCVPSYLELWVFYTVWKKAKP
UniProt Q14683: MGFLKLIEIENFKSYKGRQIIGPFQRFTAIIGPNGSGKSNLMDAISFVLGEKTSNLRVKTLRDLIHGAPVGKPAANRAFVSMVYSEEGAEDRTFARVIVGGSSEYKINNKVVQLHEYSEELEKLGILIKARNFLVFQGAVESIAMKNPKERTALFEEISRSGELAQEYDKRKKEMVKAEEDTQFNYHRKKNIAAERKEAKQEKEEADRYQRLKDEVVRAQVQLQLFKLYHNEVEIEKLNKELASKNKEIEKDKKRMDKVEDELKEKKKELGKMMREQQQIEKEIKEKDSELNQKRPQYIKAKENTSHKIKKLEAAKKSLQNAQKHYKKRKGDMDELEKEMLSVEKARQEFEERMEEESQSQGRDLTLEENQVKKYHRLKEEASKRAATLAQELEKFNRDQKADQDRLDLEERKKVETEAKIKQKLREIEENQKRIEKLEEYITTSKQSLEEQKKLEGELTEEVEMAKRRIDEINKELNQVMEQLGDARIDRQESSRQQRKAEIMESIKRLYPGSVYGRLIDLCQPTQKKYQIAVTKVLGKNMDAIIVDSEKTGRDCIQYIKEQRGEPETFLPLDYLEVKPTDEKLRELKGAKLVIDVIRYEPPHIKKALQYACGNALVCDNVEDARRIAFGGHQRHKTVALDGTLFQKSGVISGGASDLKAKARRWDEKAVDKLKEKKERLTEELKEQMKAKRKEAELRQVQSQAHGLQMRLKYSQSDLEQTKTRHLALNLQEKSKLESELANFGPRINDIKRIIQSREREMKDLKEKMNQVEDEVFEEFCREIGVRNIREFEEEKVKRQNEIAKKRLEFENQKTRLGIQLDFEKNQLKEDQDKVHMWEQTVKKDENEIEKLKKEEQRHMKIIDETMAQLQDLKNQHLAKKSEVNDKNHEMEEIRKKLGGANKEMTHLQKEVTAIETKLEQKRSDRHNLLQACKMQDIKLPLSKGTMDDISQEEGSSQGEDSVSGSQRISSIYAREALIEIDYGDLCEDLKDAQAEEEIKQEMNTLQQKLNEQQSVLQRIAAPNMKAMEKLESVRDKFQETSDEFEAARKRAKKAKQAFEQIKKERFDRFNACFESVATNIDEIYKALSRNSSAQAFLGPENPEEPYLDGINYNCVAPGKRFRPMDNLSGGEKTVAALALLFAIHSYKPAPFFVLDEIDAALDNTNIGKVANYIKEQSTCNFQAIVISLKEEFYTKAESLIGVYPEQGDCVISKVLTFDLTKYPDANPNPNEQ
UniProt P09012, whole entry, looked up: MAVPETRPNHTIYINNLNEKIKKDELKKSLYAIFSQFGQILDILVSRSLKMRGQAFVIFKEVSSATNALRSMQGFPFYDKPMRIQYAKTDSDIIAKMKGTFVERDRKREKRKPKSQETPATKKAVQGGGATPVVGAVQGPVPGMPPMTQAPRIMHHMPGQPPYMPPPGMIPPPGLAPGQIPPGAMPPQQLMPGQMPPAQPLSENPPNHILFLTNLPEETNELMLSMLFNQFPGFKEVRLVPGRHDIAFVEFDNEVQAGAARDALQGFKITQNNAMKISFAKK
UniProt P62304, whole entry, looked up: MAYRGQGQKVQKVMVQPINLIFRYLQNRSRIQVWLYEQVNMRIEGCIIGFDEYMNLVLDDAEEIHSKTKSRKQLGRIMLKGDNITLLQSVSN
UniProt Q96R06: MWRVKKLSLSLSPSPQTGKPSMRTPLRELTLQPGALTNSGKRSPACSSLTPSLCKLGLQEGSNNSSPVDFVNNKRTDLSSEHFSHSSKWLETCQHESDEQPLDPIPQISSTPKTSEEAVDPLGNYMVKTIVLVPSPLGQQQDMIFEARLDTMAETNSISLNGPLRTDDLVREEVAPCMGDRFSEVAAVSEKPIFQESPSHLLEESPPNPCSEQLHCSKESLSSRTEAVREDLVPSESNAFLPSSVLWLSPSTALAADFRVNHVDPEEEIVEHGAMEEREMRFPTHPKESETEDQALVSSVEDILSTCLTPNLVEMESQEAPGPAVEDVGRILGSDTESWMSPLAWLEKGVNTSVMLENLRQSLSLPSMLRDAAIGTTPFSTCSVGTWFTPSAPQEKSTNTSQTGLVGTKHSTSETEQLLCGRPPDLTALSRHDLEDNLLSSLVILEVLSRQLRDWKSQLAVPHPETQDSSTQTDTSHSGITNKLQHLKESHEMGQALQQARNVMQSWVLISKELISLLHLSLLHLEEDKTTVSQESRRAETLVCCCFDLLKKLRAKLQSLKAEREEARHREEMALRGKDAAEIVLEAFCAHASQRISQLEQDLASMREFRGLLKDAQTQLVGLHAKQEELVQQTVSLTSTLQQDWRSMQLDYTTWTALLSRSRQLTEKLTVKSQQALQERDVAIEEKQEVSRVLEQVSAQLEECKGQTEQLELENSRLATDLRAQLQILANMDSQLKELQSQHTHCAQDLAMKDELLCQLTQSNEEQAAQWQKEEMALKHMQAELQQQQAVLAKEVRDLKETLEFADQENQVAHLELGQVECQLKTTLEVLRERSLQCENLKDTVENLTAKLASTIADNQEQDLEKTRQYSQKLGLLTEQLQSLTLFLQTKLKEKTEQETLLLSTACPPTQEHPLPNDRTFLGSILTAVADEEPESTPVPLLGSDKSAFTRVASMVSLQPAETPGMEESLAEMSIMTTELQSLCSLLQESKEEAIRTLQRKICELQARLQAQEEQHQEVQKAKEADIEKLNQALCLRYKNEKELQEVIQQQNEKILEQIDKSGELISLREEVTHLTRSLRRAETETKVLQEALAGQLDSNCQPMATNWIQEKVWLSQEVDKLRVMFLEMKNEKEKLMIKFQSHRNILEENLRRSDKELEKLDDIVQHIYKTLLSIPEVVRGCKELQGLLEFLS
UniProt P62308, whole entry, looked up: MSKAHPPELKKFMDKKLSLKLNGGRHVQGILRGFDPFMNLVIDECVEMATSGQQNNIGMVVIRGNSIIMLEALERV
UniProt Q9Y5X1: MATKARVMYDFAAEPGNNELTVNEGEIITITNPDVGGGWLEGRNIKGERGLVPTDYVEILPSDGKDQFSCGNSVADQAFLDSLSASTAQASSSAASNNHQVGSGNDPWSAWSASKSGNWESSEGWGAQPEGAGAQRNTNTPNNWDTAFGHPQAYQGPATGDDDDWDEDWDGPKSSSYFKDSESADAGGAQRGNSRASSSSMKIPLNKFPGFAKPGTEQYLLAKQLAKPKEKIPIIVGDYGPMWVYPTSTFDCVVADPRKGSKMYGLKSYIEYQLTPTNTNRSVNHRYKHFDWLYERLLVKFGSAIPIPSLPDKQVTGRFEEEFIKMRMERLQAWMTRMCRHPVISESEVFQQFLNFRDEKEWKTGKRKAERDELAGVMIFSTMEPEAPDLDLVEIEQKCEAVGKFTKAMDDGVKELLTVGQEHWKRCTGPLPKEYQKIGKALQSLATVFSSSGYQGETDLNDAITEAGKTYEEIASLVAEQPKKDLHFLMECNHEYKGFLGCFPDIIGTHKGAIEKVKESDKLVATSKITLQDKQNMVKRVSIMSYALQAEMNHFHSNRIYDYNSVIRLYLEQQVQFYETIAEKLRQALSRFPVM
UniProt Q9Y5X2: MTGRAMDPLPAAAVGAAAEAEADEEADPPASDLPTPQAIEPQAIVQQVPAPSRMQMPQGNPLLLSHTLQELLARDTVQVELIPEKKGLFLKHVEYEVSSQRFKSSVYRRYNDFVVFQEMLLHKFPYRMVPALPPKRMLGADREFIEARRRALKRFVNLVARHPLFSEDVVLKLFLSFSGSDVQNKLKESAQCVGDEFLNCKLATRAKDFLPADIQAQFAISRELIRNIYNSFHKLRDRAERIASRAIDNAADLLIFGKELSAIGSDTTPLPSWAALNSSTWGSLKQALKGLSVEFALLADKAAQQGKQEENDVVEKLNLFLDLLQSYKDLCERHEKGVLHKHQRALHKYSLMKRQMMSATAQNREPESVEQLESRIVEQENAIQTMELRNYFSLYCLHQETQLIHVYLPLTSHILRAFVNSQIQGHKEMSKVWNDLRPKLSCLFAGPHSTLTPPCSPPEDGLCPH
UniProt Q9H4I9: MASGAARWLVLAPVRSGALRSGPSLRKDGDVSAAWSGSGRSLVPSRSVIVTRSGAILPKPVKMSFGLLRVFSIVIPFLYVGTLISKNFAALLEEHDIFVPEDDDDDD
UniProt P57768: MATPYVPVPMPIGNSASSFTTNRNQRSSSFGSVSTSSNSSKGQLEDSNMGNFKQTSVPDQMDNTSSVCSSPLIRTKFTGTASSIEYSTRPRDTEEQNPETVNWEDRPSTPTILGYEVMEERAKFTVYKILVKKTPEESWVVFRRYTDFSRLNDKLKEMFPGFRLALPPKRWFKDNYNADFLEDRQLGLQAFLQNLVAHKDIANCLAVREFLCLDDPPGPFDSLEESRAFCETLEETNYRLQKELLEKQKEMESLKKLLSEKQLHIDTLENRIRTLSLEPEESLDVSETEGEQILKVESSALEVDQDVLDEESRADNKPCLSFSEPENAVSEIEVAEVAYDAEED
UniProt O60264, whole entry, looked up: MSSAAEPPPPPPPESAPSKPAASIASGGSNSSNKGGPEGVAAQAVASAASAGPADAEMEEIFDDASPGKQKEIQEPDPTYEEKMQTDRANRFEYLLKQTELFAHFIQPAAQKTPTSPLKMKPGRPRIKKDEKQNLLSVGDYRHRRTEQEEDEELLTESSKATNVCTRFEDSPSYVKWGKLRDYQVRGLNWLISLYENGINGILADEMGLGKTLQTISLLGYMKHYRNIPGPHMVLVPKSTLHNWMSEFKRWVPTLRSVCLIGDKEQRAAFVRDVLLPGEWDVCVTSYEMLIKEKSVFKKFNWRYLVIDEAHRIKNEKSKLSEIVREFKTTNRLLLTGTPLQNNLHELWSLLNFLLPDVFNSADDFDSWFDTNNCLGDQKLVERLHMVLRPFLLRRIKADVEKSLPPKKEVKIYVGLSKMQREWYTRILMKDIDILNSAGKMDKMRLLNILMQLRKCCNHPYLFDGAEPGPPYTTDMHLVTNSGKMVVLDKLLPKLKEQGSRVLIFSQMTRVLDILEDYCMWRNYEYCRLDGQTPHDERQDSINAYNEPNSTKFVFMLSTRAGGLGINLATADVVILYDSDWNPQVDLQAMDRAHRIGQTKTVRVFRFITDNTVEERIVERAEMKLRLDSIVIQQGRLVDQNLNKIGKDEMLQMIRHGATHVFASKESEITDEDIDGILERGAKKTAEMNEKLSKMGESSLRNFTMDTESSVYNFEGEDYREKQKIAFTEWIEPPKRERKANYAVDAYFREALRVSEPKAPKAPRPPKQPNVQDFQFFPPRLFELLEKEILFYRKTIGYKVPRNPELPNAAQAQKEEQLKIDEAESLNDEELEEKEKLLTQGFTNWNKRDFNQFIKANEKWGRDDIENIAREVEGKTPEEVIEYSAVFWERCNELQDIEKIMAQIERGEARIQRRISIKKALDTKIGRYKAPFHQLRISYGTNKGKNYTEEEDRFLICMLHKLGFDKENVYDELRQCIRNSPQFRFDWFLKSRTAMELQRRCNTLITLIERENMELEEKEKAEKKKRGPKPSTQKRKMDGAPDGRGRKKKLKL
UniProt P08621, whole entry, looked up: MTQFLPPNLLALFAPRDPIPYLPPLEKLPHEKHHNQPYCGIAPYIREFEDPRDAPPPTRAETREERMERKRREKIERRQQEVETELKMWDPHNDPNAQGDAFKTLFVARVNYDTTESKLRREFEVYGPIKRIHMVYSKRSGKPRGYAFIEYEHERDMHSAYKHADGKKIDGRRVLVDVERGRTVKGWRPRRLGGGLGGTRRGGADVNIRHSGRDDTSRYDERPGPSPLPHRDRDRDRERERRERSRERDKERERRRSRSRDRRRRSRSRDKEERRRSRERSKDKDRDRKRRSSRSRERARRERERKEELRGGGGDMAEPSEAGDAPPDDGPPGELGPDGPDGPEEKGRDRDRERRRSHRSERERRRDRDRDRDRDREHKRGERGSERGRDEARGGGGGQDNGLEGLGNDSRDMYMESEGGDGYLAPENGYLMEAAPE
UniProt Q96EX1: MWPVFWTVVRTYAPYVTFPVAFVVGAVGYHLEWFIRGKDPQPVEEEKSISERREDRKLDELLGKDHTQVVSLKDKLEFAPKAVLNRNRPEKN
UniProt O75940: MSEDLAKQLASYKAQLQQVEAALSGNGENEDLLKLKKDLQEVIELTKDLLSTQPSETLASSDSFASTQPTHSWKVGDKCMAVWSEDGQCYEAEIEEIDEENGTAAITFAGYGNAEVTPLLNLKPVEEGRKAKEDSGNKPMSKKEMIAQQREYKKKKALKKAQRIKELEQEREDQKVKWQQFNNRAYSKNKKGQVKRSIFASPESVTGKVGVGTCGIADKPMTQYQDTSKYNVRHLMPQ

Assays:
Assay in all cases: log2 fold change, soluble protein after heating vs DMSO (PISA); higher = thermal stabilisation; K562 cells, 10 uM, 30 min; active = over 0.2 and 3.5 SD of the protein, either way, in both replicates (recomputed)
[1] = compound: CS(=O)(=O)c1ccc(-c2cnc(N)c(C(=O)Nc3ccccc3)n2)cc1
How it was run: (§1)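 K562 cells (2×10^6 cells/mL) were treated with 10 μM compound for 30 min, and aliquots were heated for 3 min over 48°C-58°C. Pooled aliquots were extracted in PBS with 0.5% NP-40 at 4°C, and the supernatant after 21,000xg for 90 min was measured by TMTpro 16plex LC-MS/MS with channel sums equalised. Reported thermal stability, relative to control samples and from duplicates, is a log2 fold change.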

[2] = compound: C[C@@H](Oc1cc(-c2cnn(C3CCNCC3)c2)cnc1N)c1c(Cl)ccc(F)c1Cl [crizotinib]
How it was run: as §1

[3] = compound: C[C@@H]1COCCN1C2=NC(=NC(=C2)C3(CC3)S(=O)(=O)C)C4=C5C=CNC5=CC=C4
How it was run: as §1

[4] = compound: C[C@H](C1=CC=C(C=C1)C(=O)NC2=C3C=CNC3=NC=C2)N
How it was run: as §1

[5] = compound: C[C@H](Nc1ncnc2nc[nH]c12)c1cc2cccc(Cl)c2c(=O)n1-c1ccccc1 [duvelisib]
How it was run: as §1

[6] = compound: Cc1cc(Nc2cc(CN3CCOCC3)c3nc(C)c(Cc4ccc(Cl)cc4F)n3n2)n[nH]1 [gandotinib]
How it was run: as §1

[7] = compound: Cc1cc(Nc2cc(N3CCN(C)CC3)nc(Sc3ccc(NC(=O)C4CC4)cc3)n2)n[nH]1 [tozasertib]
How it was run: as §1

[8] = compound: Cc1cc(SCc2sc(-c3ccc(C(F)(F)F)cc3)nc2C)ccc1OCC(=O)O
How it was run: as §1

[9] = compound: Cc1ccc(-n2nc(C(C)(C)C)cc2NC(=O)Nc2ccc(OCCN3CCOCC3)c3ccccc23)cc1 [doramapimod]
How it was run: as §1

[10] = compound: Cc1ccc(C(=O)N(CCCN)[C@@H](c2nc3cc(Cl)ccc3c(=O)n2Cc2ccccc2)C(C)C)cc1 [ispinesib]
How it was run: as §1

Target | log2 fold change [1] | log2 fold change [2] | log2 fold change [3] | log2 fold change [4] | log2 fold change [5] | log2 fold change [6] | log2 fold change [7] | log2 fold change [8] | log2 fold change [9] | log2 fold change [10]
SNRNP200 (UniProt O75643) | inactive: 0.019 | inactive: 0.019 | inactive: -0.027 | inactive: 0.089 | inactive: 0.008 | inactive: 0.011 | inactive: 0.021 | inactive: -0.012 | inactive: 0.052 | inactive: 0.146
SNTA1 (UniProt Q13424) | inactive: -0.087 | inactive: 0.176 | inactive: 0.087 | inactive: -0.001 | inactive: 0.065 | inactive: -0.16 | inactive: -0.055 | inactive: 0.033 | inactive: 0.023 | inactive: 0.088
SNRPD2 (UniProt P62316) | inactive: -0.036 | inactive: -0.001 | inactive: -0.074 | inactive: 0.008 | inactive: -0.094 | inactive: 0.101 | inactive: -0.001 | inactive: -0.094 | inactive: 0 | inactive: 0.074
SMN1 (UniProt Q16637) | inactive: -0.089 | inactive: -0.08 | inactive: -0.039 | inactive: 0.29 | inactive: -0.146 | inactive: 0.129 | inactive: -0.001 | inactive: 0.052 | inactive: 0.02 | inactive: -0.042
SMS (UniProt P52788) | inactive: 0.024 | inactive: 0.012 | inactive: 0.092 | inactive: -0.056 | inactive: 0.045 | inactive: 0.01 | inactive: -0.033 | inactive: -0.04 | inactive: -0.083 | inactive: 0.041
SOD2 (UniProt P04179) | inactive: 0.009 | inactive: 0.033 | inactive: 0.112 | inactive: -0.07 | inactive: 0.032 | inactive: 0.016 | inactive: -0.002 | inactive: -0.069 | inactive: -0.126 | inactive: 0.061
SMC1A (UniProt Q14683) | inactive: 0.017 | inactive: 0.051 | inactive: 0.039 | inactive: -0.105 | inactive: 0.049 | inactive: 0.001 | inactive: 0.007 | inactive: -0.003 | inactive: -0.02 | inactive: 0.054
SNRPA (UniProt P09012) | inactive: -0.062 | inactive: 0.047 | inactive: -0.12 | inactive: 0.084 | inactive: -0.046 | inactive: 0.06 | inactive: 0 | inactive: -0.067 | inactive: 0.028 | inactive: 0.036
SNRPE (UniProt P62304) | inactive: -0.059 | inactive: 0.05 | inactive: 0.016 | inactive: 0.061 | inactive: 0.019 | inactive: -0.017 | inactive: -0.021 | inactive: -0.036 | inactive: 0.03 | inactive: 0.052
SNRPB isoform 3 (UniProt P14678) | inactive: -0.021 | inactive: 0 | inactive: -0.097 | inactive: -0.01 | inactive: -0.024 | inactive: 0.034 | inactive: 0.021 | inactive: -0.037 | inactive: 0.099 | inactive: 0.308
SPAG7 (UniProt O75391) | inactive: 0.048 | inactive: 0.037 | inactive: -0.015 | inactive: -0.028 | inactive: 0.035 | inactive: 0.044 | inactive: 0.021 | inactive: 0.032 | inactive: 0.007 | inactive: 0.019
SLMAP (UniProt Q14BN4) | inactive: -0.059 | inactive: 0.015 | inactive: -0.034 | inactive: 0.096 | inactive: -0.017 | inactive: 0.023 | inactive: 0.033 | inactive: 0.018 | inactive: 0.072 | inactive: 0.012
SNX6 (UniProt Q9UNH7) | inactive: -0.169 | inactive: -0.323 | inactive: -0.014 | inactive: -0.033 |  | active: -0.5 |  | inactive: 0.061 | inactive: -0.036 | inactive: -0.281
SMC2 (UniProt O95347) | inactive: 0.019 | inactive: -0.004 | inactive: -0.016 | inactive: 0.055 | inactive: 0.01 | inactive: -0.035 | inactive: 0.032 | inactive: 0.044 | inactive: -0.012 | inactive: -0.03
SPAG5 (UniProt Q96R06) | inactive: 0.028 | inactive: -0.175 | inactive: -0.136 | inactive: 0.242 | inactive: -0.069 | inactive: 0.004 | inactive: 0.107 | inactive: 0.06 | inactive: 0.234 | inactive: -0.435
SNRPG (UniProt P62308) | inactive: -0.02 | inactive: 0.107 | inactive: 0.007 | inactive: -0.007 | inactive: 0.008 | inactive: 0.023 | inactive: 0 | inactive: -0.036 | inactive: 0.001 | inactive: 0.033

Reformatted: results already given

| Target | log2 fold change [1] | log2 fold change [2] | log2 fold change [3] | log2 fold change [4] | log2 fold change [5] | log2 fold change [6] | log2 fold change [7] | log2 fold change [8] | log2 fold change [9] | log2 fold change [10] |
| --- | --- | --- | --- | --- | --- | --- | --- | --- | --- | --- |
| SOD2 (UniProt P04179) | inactive: 0.009 | inactive: 0.033 | inactive: 0.112 | inactive: -0.07 | inactive: 0.032 | inactive: 0.016 | inactive: -0.002 | inactive: -0.069 | inactive: -0.126 | inactive: 0.061 |
| SMC1A (UniProt Q14683) | inactive: 0.017 | inactive: 0.051 | inactive: 0.039 | inactive: -0.105 | inactive: 0.049 | inactive: 0.001 | inactive: 0.007 | inactive: -0.003 | inactive: -0.02 | inactive: 0.054 |

Next part:

Target | log2 fold change [1] | log2 fold change [2] | log2 fold change [3] | log2 fold change [4] | log2 fold change [5] | log2 fold change [6] | log2 fold change [7] | log2 fold change [8] | log2 fold change [9] | log2 fold change [10]
SNX9 (UniProt Q9Y5X1) | inactive: 0.013 | inactive: -0.077 | inactive: -0.009 | inactive: 0.003 |  | inactive: -0.054 |  | inactive: 0.115 | inactive: -0.009 | inactive: -0.074
SNX8 (UniProt Q9Y5X2) | inactive: -0.019 | inactive: -0.014 | inactive: 0.048 | inactive: -0.172 | inactive: -0.001 | inactive: -0.011 | inactive: -0.014 | inactive: -0.013 | inactive: -0.002 | inactive: -0.051
SMG5 (UniProt Q9UPR3) | inactive: -0.091 | inactive: -0.144 | inactive: -0.06 | inactive: 0.091 | inactive: -0.051 |  | inactive: 0.005 | inactive: 0.106 | inactive: 0.114 | inactive: -0.076
SLC9A3R2 (UniProt Q15599) | inactive: -0.047 | inactive: 0 | inactive: -0.005 | inactive: -0.042 | inactive: -0.018 | inactive: -0.016 | inactive: -0.026 | inactive: -0.012 | inactive: 0.031 | inactive: 0.043
SMDT1 (UniProt Q9H4I9) | inactive: 0.144 | inactive: 0.042 | inactive: 0.017 | inactive: -0.035 |  | inactive: -0.23 |  | inactive: 0 | inactive: 0.054 | 
SNX12 isoform 1 (UniProt Q9UMY4) | inactive: 0.004 | inactive: -0.055 | inactive: 0.081 | inactive: 0.007 |  | inactive: -0.204 |  | inactive: 0.044 | inactive: -0.036 | inactive: -0.097
SNX16 (UniProt P57768) | inactive: 0.037 | inactive: 0.069 | inactive: 0.097 | inactive: 0.227 | inactive: 0.05 | inactive: -0.182 |  | inactive: -0.009 | inactive: -0.125 | inactive: -0.15
SMIM26, A0A096LP01 | inactive: -0.057 | inactive: -0.075 | inactive: -0.044 | inactive: 0.022 | inactive: 0.007 | inactive: -0.059 | inactive: 0.029 | inactive: -0.002 | inactive: -0.017 | inactive: -0.11
SMAD5 (UniProt Q99717) | inactive: -0.052 | inactive: -0.034 | inactive: -0.039 | inactive: 0.056 | inactive: -0.028 | inactive: -0.113 | inactive: -0.031 | inactive: 0.126 | inactive: -0.094 | inactive: 0.147
SMARCA5 (UniProt O60264) | inactive: -0.004 | inactive: -0.073 | inactive: 0.273 | inactive: 0.161 |  | inactive: -0.045 |  | inactive: 0.127 | inactive: -0.052 | inactive: -0.012
SNRNP70 (UniProt P08621) | inactive: -0.062 | inactive: -0.057 | inactive: -0.172 | inactive: 0.204 | inactive: -0.048 | inactive: 0.073 | inactive: -0.061 | inactive: 0.026 | inactive: 0.139 | inactive: 0.103
SMCHD1 (UniProt A6NHR9) | inactive: -0.019 | inactive: -0.065 | inactive: -0.041 | inactive: -0.104 |  | inactive: 0.064 |  | inactive: 0.104 | inactive: 0.059 | inactive: -0.149
SMIM12 (UniProt Q96EX1) | inactive: 0.038 | inactive: 0.127 | inactive: 0.043 | inactive: -0.068 | inactive: 0.067 | inactive: -0.033 | inactive: -0.061 | inactive: 0.002 | inactive: -0.04 | inactive: -0.056
SMNDC1 (UniProt O75940) | inactive: 0.006 | inactive: 0.041 | inactive: 0.007 | inactive: 0.053 | inactive: 0.029 | inactive: -0.01 | inactive: 0.018 | inactive: -0.013 | inactive: -0.018 | inactive: 0.067
SND1 (UniProt Q7KZF4) | inactive: 0.107 | inactive: -0.101 | inactive: -0.674 | inactive: 0.713 | inactive: -0.197 | inactive: 0.319 | inactive: -0.003 | inactive: 0.109 | inactive: 0.391 | inactive: -0.478
